Experimental data: the supplement of paper PMC10338343
± gives the standard deviation. Only a part is listed here, and it is no random draw. Many of these values have a large error.

These sequences were tested on MILI (PIWIL2) piRISC loaded with L1MC piRNA (26 nt) (assay: pre-steady-state target cleavage rate (min^-1); MIWI and MILI are mouse PIWI proteins and EfPiwi is from a freshwater sponge; tags in brackets are library labels; higher = faster piRNA-guided slicing of the target). Conditions: guide: L1MC piRNA 5'p-UAACUAAAUACUAUGCAAGCUGUAGG; auxiliary factor: 500 nM mouse GTSF1.
Experimental: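 Cleave-'n-Seq: a library of target RNAs (target site embedded in constant flanks, ACAGCATTCCGCGTTAGTGATATCCG... 5' flank; DNA-blocked outside the site) at 0.1 nM was incubated with 1 nM active mouse MILI or MIWI piRISC (synthetic 5'-monophosphorylated piRNA guide) with or without 500 nM mouse GTSF1 at 33 °C for 1 min to 16 h. Uncleaved targets were sequenced and normalised to non-target controls, and the pooled three trials were fitted to a burst-and-steady-state model to give the pre-steady-state cleavage rate (min^-1; k3 is constrained to at most 1e-4). Sequence is the target site only; target names encode pairing extent (gX:gY) and contiguous / 1-mismatch / 2-mismatch / bulge geometry. Fits with R² ≤ 0 are excluded.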

Sequence	pre-steady-state target cleavage rate
UCCUGGAUCAGCUUGCAUACAUAAAUCAAA [g12:g22:cont:t1A]	0.00115 ± 0.0082
UCCUGGAUGAGCUUGCAUAGUUAAUAGUAA	0.00132 ± 0.0072
UCCUGGAUCAGCUUGCAUUGUAUUUAGUAA	0.144 ± 0.014
UCCUGGAACAGCUUGCAUAGUAAAAAGUUA	0.0663 ± 0.018
UCCUGCUACAGCUUGCAAAGAAUUUAGUUA	0.0168 ± 0.0052
UCCUGGAUGUCGAACCAUAGUAUUUAGUUA	0.00718 ± 0.0019
UCCUGGAACAGACUUGCAUAGUAUUUAGUUA	0.217 ± 0.014
UCCUCCUACAGCUUGCAUUCAAUUUAGUUA	0.00444 ± 0.0046
UCCUCCUACAGCUUGCAUAGUAUUUAGUUC [g2:g26:cont:t1C]	0.283 ± 0.016
UCCUCCUACAGCUUGCAUAGUAUUUAGUUU [g2:g26:cont:t1U]	0.35 ± 0.02
UCCUGGUACAGGAAGCAUAGUAUUUAGUUA	0.223 ± 0.025
UCCUGGAUGUCGAACCUAAGUAUUUAGUUA	0.000205 ± 0.013
UCCUGGAUGUCGUUGCAUAAGUAUUUAGUUA	0.00128 ± 0.0075

Same assay, conditions: guide: L1MC piRNA 5'p-UAACUAAAUACUAUGCAAGCUGUAGG; auxiliary factor: none (no GTSF1)

Sequence	pre-steady-state target cleavage rate
UCCUGGAUGAGCUUGGAUAGUAUUUUGUUA	0.00143 ± 0.0044
UCCUGGAUGUCGAUGCAUAGAAUUUAGUUA	0.00172 ± 0.0033
UCCUCCUACAGCUUGCAUAGUAAAAACAAA	0.000957 ± 0.0068
UCCUGGAUCAGCUUGCAUACAUAAAUCAAA [g12:g22:cont:t1A]	0.000205 ± 0.011
UCCUGGAUGAGCUUGCAUAGUUAAUAGUAA	0.00115 ± 0.0063
UCCUGGAUGUCGAUGCAUAGUAUUUAGCUA	0.000397 ± 0.014
UCCUGGAUCAGCUUGCUAAGUAUUUAGAAA	0.00139 ± 0.0038
UCCUGGAUCAGCUUGCAUUGUAUUUAGUAA	0.00277 ± 0.0032
UCCUGCUACAGCUUGCAUACAUUUUAGUAA	0.000961 ± 0.0054
UCCUGGAACAGCUUGCAUAGUAAAAAGUUA	0.00235 ± 0.0028
UCCUGGAACAGCUUGCAUAGUAUUAUGUAA	0.000566 ± 0.0076
UCCUGGAUGUGCUUGGAUAGUAUUUAGAUA	0.00155 ± 0.0049
UCCUGGUACAGCUUGCAUUCUAUUUAGUUA	0.00368 ± 0.0052
UCCUGCUACAGCUUGCAAAGAAUUUAGUUA	0.00324 ± 0.0017
UCCUGGAUGUCGAACGUAUGUGUUUAGUUA	< 0.0001
UCCUGGAUGUCGAACCAUAGUAUUUAGUUA	0.000321 ± 0.0056
UCCUGGAACAGACUUGCAUAGUAUUUAGUUA	0.00682 ± 0.0024
UCCUGCUACAGCUUCCAUAGUAUAUAGUUA	0.000679 ± 0.0092
UCCUGGAUCAGCUACGAUAGUAUUUUCAAA	< 0.0001
UCCUCCUACAGCUUGCAUUCAAUUUAGUUA	0.00184 ± 0.0036
UCCUGGAUGAGCUUGCAAAGUAUUUAGAAA	0.00124 ± 0.0053
UCCUGGUACAGGAAGCAUAGUAUUUAGUUA	0.00538 ± 0.0026
UCCUGGAUGUCGAAGCAUAGUAUUUAGAUUA	0.000177 ± 0.018
UCCUGGAUGUCGAACCUAAGUAUUUAGUUA	0.000567 ± 0.0057
UCCUGGAUGUCGUUGCAUAAGUAUUUAGUUA	0.00111 ± 0.0075
UCCUCCUACAGCUUCCAUAGUAUUUAGAAA	0.000494 ± 0.01
UCCUGGAUCAGCUUGCUUAGAAUUUAGUUA	0.00161 ± 0.0032
